PubChem BioAssay AID1487 (National Center for Advancing Translational Sciences (NCATS), 2009)
The other results are listed elsewhere or left out. The main result of the screen is listed elsewhere. These columns were measured beside it and carry no call. Most of these compounds were active or inconclusive in the main read-out, so they are no random draw. Potencies come from curve fits of mixed quality, noted in brackets.

Test: qHTS Assay for Modulators of Lamin A Splicing
Details: HeLa LMNA splicing GFP/RFP minigene ratio, 48 h
Procedure, shortened: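 S3 HeLa stable clones carrying a lamin A-EGFP splicing minigene plus DsRed2 were seeded at 600 cells/well in Opti-MEM with 2% FBS, pin-dosed and incubated 48 h at 37°C. Acumen cytometry (488 nm) gave the GFP/RFP total-intensity ratio.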

[1] = measured here: RFP viability control channel
[2] = measured here: GFP splicing reporter channel

Structure (SMILES) | AC50 [1] | AC50 [2]
Cc1cc(C)c2nc(SC(C)C(=O)NCC(=O)Nc3ccc(F)c(F)c3F)cc(C)c2c1 (centres undefined) | 0.891 µM [rising, partial curve, poor fit] | –
CCCn1c(=S)[nH]c2cc(C(=O)NCC3CCCO3)ccc2c1=O (centres undefined) | 0.0631 µM [rising, full curve, poor fit] | –
COc1ccc(OCCNC(=O)/C=C/c2ccc([N+](=O)[O-])cc2)cc1 | – | 14.1 µM [rising, single point]
CCOC(=O)C1CCCN(S(=O)(=O)c2ccc(F)c(C(=O)Nc3ccc(F)c(F)c3)c2)C1 (centres undefined) | 20 µM [rising, single point] | –
CC(C)(C(=O)O)n1cncn1 | 0.794 µM [falling, full curve] | –
COC(=O)c1ccc(NC(=O)CCS(=O)(=O)c2ccc(Br)cc2)cc1 | 5.01 µM [falling, partial curve, poor fit] | –
CC(=O)c1cc2c(cc1N/C(=N/S(=O)(=O)c1ccc(C)cc1)c1ccccc1)OCO2 | 31.6 µM [rising, single point] | –
O=C(NCc1ccco1)c1cnc2ccccn2c1=O | 25.1 µM [rising, single point] | –
COc1ccc(-c2cc(C(=O)Nc3nc4ccccc4s3)c3ccccc3n2)cc1OC | 6.31 µM [rising, single point] | 0.447 µM [rising, full curve, poor fit]
COc1ccc(N(C)S(=O)(=O)c2cccc(C(=O)N(C)Cc3ccc(C)o3)c2)cc1 | 0.02 µM [rising, full curve, poor fit] | –
COc1ccccc1NS(=O)(=O)c1cc(NC(=O)CNC(=O)c2cc(C)cc(C)c2)ccc1C | 20 µM [rising, single point] | –
CCOc1ccc(-c2nc(-c3ccc(OC)cc3)no2)cc1OCC | 35.5 µM [rising, partial curve] | –
CCc1ccccc1NC(=O)c1ccc([N+](=O)[O-])s1 | 5.62 µM [rising, partial curve] | –
Cc1ccccc1CSc1nc2c(c(=O)[nH]1)CCC2 | 35.5 µM [rising, single point] | 20 µM [rising, partial curve]
Cc1sc(Nc2ccc([N+](=O)[O-])cc2)nc1-c1c(C)n(C)n(-c2ccccc2)c1=O | 28.2 µM [rising, single point] | 12.6 µM [rising, single point]
O=C(NNC(=O)C(c1ccccc1)c1ccccc1)c1ccccn1 | 3.98 µM [rising, full curve] | 3.16 µM [rising, full curve]
COC(=O)C(Nc1nccs1)(OC)C(F)(F)F (centres undefined) | 20 µM [falling, partial curve, poor fit] | –
O=c1oc2c(O)c(O)cc3c(=O)oc4c(O)c(O)cc1c4c23 | 3.98 µM [falling, single point] | 3.16 µM [falling, single point]

Structure (SMILES) | AC50 [1] | AC50 [2]
CCOc1cc(/C=C2\SC(=N)N(c3nonc3N)C2=O)ccc1OCC(N)=O | – | 22.4 µM [falling, single point]
O=c1c2c(nc3c(-c4ccc(Cl)cc4)c[nH]n13)CCC2 | 1.12 µM [rising, partial curve, poor fit] | –
Cc1nn(C)c(C(=O)NCc2ccc(Cl)cc2)c1Cl | 2.51 µM [rising, full curve] | 2.24 µM [rising, full curve]
COc1cc(/C=N/NC(=O)COc2cccc(F)c2)ccc1OS(=O)(=O)c1ccc(C)cc1 | 20 µM [rising, partial curve] | 0.891 µM [rising, partial curve]
C=CCNC(=S)Nc1ccc(Cl)cc1F | 0.02 µM [falling, full curve, poor fit] | –
Cc1nc2ccn(Cc3cccs3)c(=O)c2cc1C(=O)NCc1ccc(Cl)cc1 | 0.891 µM [rising, full curve, poor fit] | 0.00447 µM [rising, full curve, poor fit]
O=C(CCN1CCOCC1)N1CCc2c([nH]c3ccccc23)C1c1cccc(Cl)c1 (centres undefined) | 1.41 µM [falling, partial curve, poor fit] | 3.98 µM [falling, full curve, poor fit]
c1coc(CNc2ncnc3c2oc2ccccc23)c1 | 14.1 µM [rising, partial curve] | –
COc1ccc(-n2nnnc2S(=O)(=O)Cc2ccc(C(=O)O)cc2)cc1 | 28.2 µM [falling, single point] | 22.4 µM [falling, single point]
COC(=O)C1=C(N)Oc2cc(C)n(CC3CCCO3)c(=O)c2C1c1ccc(Cl)c(Cl)c1 (centres undefined) | 35.5 µM [rising, single point] | 35.5 µM [rising, single point]
CCOc1cc(/C=N/NC(=O)C(C)Sc2ccccc2)ccc1O (centres undefined) | – | 0.0631 µM [rising, full curve, poor fit]
CCCc1cc(C(=O)Cc2ccc(F)cc2)c(O)cc1O | 14.1 µM [rising, single point] | 11.2 µM [rising, partial curve]
CCOC(=O)C(CC)(CC)C(=O)/C=C/c1ccc(Br)cc1 | 12.6 µM [falling, partial curve] | 14.1 µM [falling, partial curve]
COCCCNC(=O)C(C#N)c1nc2ccccc2nc1N1CCN(Cc2ccccc2)CC1 (centres undefined) | 10 µM [falling, partial curve] | –
CC(C)(C)C(=O)Nc1cccc2[nH]ncc12 | 0.631 µM [falling, single point] | 0.00398 µM [rising, full curve, poor fit]
Cc1cccc(NC(=S)N2CCCN(c3ncccc3[N+](=O)[O-])CC2)c1 | 35.5 µM [falling, single point] | –
Cc1ccc(-c2nc3cccnc3s2)cc1NS(=O)(=O)c1ccc2c(c1)CCCC2 | 10 µM [rising, partial curve] | –

Look-ups from the list.
AC50 [1] with `CCCn1c(=S)[nH]c2cc(C(=O)NCC3CCCO3)ccc2c1=O` (centres undefined) reads 0.0631 µM [rising, full curve, poor fit]
AC50 [1] with `c1coc(CNc2ncnc3c2oc2ccccc23)c1` reads 14.1 µM [rising, partial curve]
